PubChem BioAssay AID504744 – Drosophila RNAi Screening Center, 2011
In all, the deposit lists about 23,000 reagents; shown is a random part of those that have a named target and a result. In the full data, 98 (0.43%) are marked active. 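Only hit calls are given; the phospho-dAkt signals, z-scores and hit direction were not deposited.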 Names joined by + are all predicted targets of the reagent. No sequences are given here.

Screen: 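Identify dsRNAs that increase or decrease phospho-dAkt after insulin treatment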 (primary screen)
System: Drosophila Kc167 cells
Reagent: long dsRNA against Drosophila genes, 250 ng dsRNA per well of a 384-well plate
Time to read-out: 3 days of knock-down, then overnight serum-free starvation before stimulation
Conditions: bovine insulin at 387 nM for 10 minutes after 12 h without serum
Measured: 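Per-well phospho-dAkt level from an in-cell fluorescent antibody stain, divided by a DNA-dye signal; log2 residuals turned into z-scores that take cell number into account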
Call rule: 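Under insulin, a gene counts as a hit if the average z-score of two replicates lies above 2.5 or below -2.5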

| gene | PubChem SID | activity call |
| --- | --- | --- |
| Ent1 | SID104180122 | inactive |
| CG32278 + CG14963 | SID104201739 | inactive |
| CG12017 | SID104188017 | inactive |
| CG2104 | SID104192096 | inactive |
| Ilp1 | SID104189966 | inactive |
| CG18294 | SID104189683 | inactive |
| CG7384 | SID104182845 | inactive |
| myo | SID104196966 | inactive |
| CG33296 | SID104180790 | inactive |
| GstD7 | SID104196480 | inactive |
| CG8204 | SID104186898 | inactive |
| CG14292 | SID104194564 | inactive |
| ed | SID104180142 | inactive |
| ed | SID104180230 | inactive |
| ed | SID104180231 | inactive |
| ed | SID104180270 | inactive |
| CG12862 | SID104185994 | inactive |
| Ir87a | SID104194628 | inactive |
| nito | SID104185735 | inactive |
| CG14488 | SID104186252 | inactive |
| CG5805 | SID104195670 | inactive |
| nenya | SID104193630 | inactive |
| Ir60a | SID104184004 | inactive |
| CG17078 | SID104180276 | inactive |
| ORMDL | SID104191529 | inactive |
| zda | SID104186728 | inactive |
| Pdha | SID104198205 | inactive |
| SP1173 | SID104191069 | inactive |
| euc | SID104194284 | inactive |
| AGO3 | SID104201152 | inactive |
| CG13577 | SID104184005 | inactive |
| CG11456 | SID104191457 | inactive |
| CG18335 | SID104186515 | inactive |
| Or94b | SID104196565 | inactive |
| dbo | SID104191131 | inactive |
| CG14624 | SID104198426 | inactive |
| CG1774 | SID104195050 | inactive |
| CG15611 | SID104186355 | inactive |
| CG15611 | SID104186356 | inactive |
| CG31093 | SID104195481 | inactive |
| CG13039 | SID104189712 | inactive |
| CG13137 | SID104182026 | inactive |
| Sbds | SID104190784 | inactive |
| Targ1 | SID104191408 | inactive |
| janA | SID104196764 | inactive |
| CG15098 | SID104186319 | inactive |
| Atet | SID104180055 | inactive |
| CG13970 | SID104182103 | inactive |
| mRpL50 | SID104190807 | inactive |
| CG6304 | SID104182740 | inactive |
| CG17738 | SID104195049 | inactive |
| CG2182 | SID104192100 | inactive |
| CG15258 | SID104182270 | inactive |
| CG10918 | SID104200264 | inactive |
| opm | SID104199933 | inactive |
| opm | SID104201688 | inactive |
| f | SID104198966 | inactive |
| f | SID104199308 | active |
| f | SID104200123 | inactive |
| EMC8-9 | SID104184172 | inactive |
| Ir94h | SID104195024 | inactive |
| CG42795 | SID104192564 | inactive |
| CG42795 | SID104195325 | inactive |
| ATP7 | SID104199611 | inactive |
| CtsL1 | SID104185254 | inactive |
| CtsL1 | SID104187155 | inactive |
| CG3987 | SID104195323 | inactive |
| kermit | SID104185866 | inactive |
| Agpat4 | SID104190238 | inactive |
| TBC1D23 | SID104180449 | inactive |
| l(3)73Ah + CG32163 | SID104201518 | inactive |
| Sqor | SID104188245 | inactive |
| 5PtaseI | SID104196061 | inactive |
| 5PtaseI | SID104201660 | inactive |
| RnrL | SID104183205 | inactive |
| CAH3 | SID104197568 | inactive |
| CG9269 | SID104196257 | inactive |
| CG15040 | SID104199408 | inactive |
| CG15040 | SID104201213 | inactive |
| CG34461 | SID104190559 | inactive |
| TrxT | SID104201725 | inactive |
| Drsl1 | SID104201944 | inactive |
| emc | SID104188507 | inactive |
| CG13737 | SID104189856 | inactive |
| CG31029 | SID104195214 | inactive |
| CG12439 | SID104181960 | inactive |
| Andorra | SID104199267 | inactive |
| Dph4 | SID104192110 | inactive |
| Orc5 | SID104183182 | inactive |
| Tre1 | SID104198518 | inactive |
| witty | SID104182170 | inactive |
| witty | SID104201340 | inactive |
| CG9582 | SID104183059 | inactive |
| CG13251 | SID104191491 | inactive |
| prc | SID104191177 | inactive |
| CG10505 | SID104183867 | inactive |
| CG17049 (retired record) | SID104186442 | inactive |
| Lsd-2 | SID104199935 | inactive |
| ytr | SID104184098 | inactive |
| ytr | SID104201647 | inactive |
| RpLP1 | SID104180575 | inactive |
| RpLP1 | SID104201696 | inactive |
| Tom70 | SID104182782 | inactive |
| Unc50 | SID104196353 | inactive |
| CG8230 | SID104185723 | inactive |
| CG13392 | SID104182054 | inactive |
| Kdsr | SID104194037 | inactive |
| CG30416 | SID104184357 | inactive |
| CG31643 | SID104180698 | inactive |
| CG4477 | SID104190217 | inactive |
| Elo68alpha | SID104202104 | inactive |
| CG7945 + yellow-k | SID104190643 | inactive |
| SMC5 | SID104191641 | inactive |
| CG9067 | SID104187120 | inactive |
| CG14569 | SID104191522 | inactive |
| shv | SID104180432 | inactive |
| shv | SID104201680 | inactive |
| stl | SID104184188 | inactive |
| CG32486 | SID104188205 | inactive |
| CG32486 | SID104188280 | inactive |
| E(spl)m7-HLH | SID104196488 | inactive |
| Grip71 | SID104181834 | inactive |
| CG12780 | SID104185961 | inactive |
| ebd2 | SID104191474 | inactive |
| CG12983 | SID104191484 | inactive |
| CG16704 | SID104180267 | inactive |
| lncRNA:CR32368 | SID104188691 | inactive |
| CG13747 | SID104186210 | inactive |
| lncRNA:iab4 | SID104201831 | inactive |
| Paics | SID104200097 | inactive |
| Gclm | SID104195469 | inactive |
| CG5084 | SID104186705 | inactive |
| Had2 | SID104185763 | inactive |
| bin3 | SID104184711 | inactive |
| CG12289 | SID104189666 | inactive |
| Wdr62 | SID104179873 | inactive |
| Wdr62 | SID104179874 | inactive |
| Wdr62 | SID104180493 | inactive |
| Wdr62 | SID104201537 | inactive |
| CG8043 | SID104196160 | inactive |
| Glo1 | SID104186449 | inactive |
| CG7546 | SID104188677 | inactive |
| CG7546 | SID104190663 | active |
| CG7546 | SID104201698 | inactive |
| CG16820 | SID104182314 | inactive |
| CG14537 | SID104182187 | inactive |
| CG15177 | SID104192349 | inactive |
| Sec15 | SID104195971 | inactive |
| aurB | SID104183340 | inactive |
| Atac1 | SID104182947 | inactive |
| CG3526 | SID104197032 | inactive |
| CG3526 | SID104198428 | inactive |
| Su(fu) | SID104196663 | inactive |
| CG31650 | SID104182932 | inactive |
| Dtwd2 + Obp84a | SID104192395 | inactive |
| CG8677 | SID104182899 | inactive |
| Bin1 | SID104196635 | inactive |

Laid out differently: results already given.
{"gene": "TBC1D23", "PubChem SID": "SID104180449", "activity call": "inactive"}
{"gene": "l(3)73Ah + CG32163", "PubChem SID": "SID104201518", "activity call": "inactive"}
{"gene": "Sqor", "PubChem SID": "SID104188245", "activity call": "inactive"}
{"gene": "5PtaseI", "PubChem SID": "SID104196061", "activity call": "inactive"}
{"gene": "5PtaseI", "PubChem SID": "SID104201660", "activity call": "inactive"}
{"gene": "RnrL", "PubChem SID": "SID104183205", "activity call": "inactive"}
{"gene": "CAH3", "PubChem SID": "SID104197568", "activity call": "inactive"}
{"gene": "CG9269", "PubChem SID": "SID104196257", "activity call": "inactive"}
{"gene": "CG15040", "PubChem SID": "SID104199408", "activity call": "inactive"}
{"gene": "CG15040", "PubChem SID": "SID104201213", "activity call": "inactive"}
{"gene": "CG34461", "PubChem SID": "SID104190559", "activity call": "inactive"}
{"gene": "TrxT", "PubChem SID": "SID104201725", "activity call": "inactive"}
{"gene": "Drsl1", "PubChem SID": "SID104201944", "activity call": "inactive"}
{"gene": "emc", "PubChem SID": "SID104188507", "activity call": "inactive"}
